This assay is described as follows: qHTS Assay to Find Inhibitors of Chronic Active B-Cell Receptor Signaling. The settings on record: ABC-DLBCL IkBa-CBG/CBR reporter, luminescence ratio (green luciferase fused to IkBa over red control in TMD8 lymphoma cells), 4 h. The essentials:
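Concentration-response series (up to 46 uM) were applied to TMD8 dual-reporter cells for 4 h at 37C with doxycycline. Green/red ratio, after filter-overlap correction, defined %Activity; red signal alone was normalised to basal cells and zero luminescence.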
(qHTS replaces the single test concentration by a dilution series.)

The mark [1] stands for this setting: measured here: CBR red luminescence, cell number.
Where [2] appears, read: measured here: IkBa-CBG green luminescence.

SMILES strings stand for the structures. The list shows a part of the results. These are further read-outs of the screen, such as a control signal, another cell line or another target. No call is given for them. The list favours compounds with an active or inconclusive main result. Words in brackets tell the shape of the fitted curve; partial curves, single points and poor fits give uncertain potencies.

Usually AC50 stands for the midpoint of the concentration-response curve, whichever way the signal moves. Regarding `CCc1ccc(C(=O)CSc2nnc(C3CC3)n2C2CC2)cc1`, under setting [1], the AC50 was 4.11 µM [rising, full curve].
The same measure, in the same setting: the same measure for `COCc1c(C(=O)OCc2c(C)noc2C)oc2ccccc12`: 0.282 µM [falling, full curve, poor fit]; for `CCCCOC(=O)Nc1nnc(SCCOc2ccc(C)cc2)s1`: 4.61 µM [rising, single point].
The same measure, in the same setting: the same measure for `Cc1cc(OCc2ccc(C(=O)n3cccn3)o2)ccc1Cl`: 10.3 µM [falling, partial curve]; for `C=CCOc1cccc(C2/C(=C(/O)c3ccc(C)cc3)C(=O)C(=O)N2CCN2CCOCC2)c1` (centres undefined): 11.2 µM [falling, partial curve, poor fit].
Consider `Cc1cccc(C(=O)Nc2c3c(nn2-c2ccc(Cl)cc2)CS(=O)(=O)C3)c1`, for which the AC50 under setting [2] is 35.5 µM [rising, partial curve, poor fit].
As for `CCN(C(=O)COC(=O)c1c(C)noc1C)C1CCS(=O)(=O)C1` (centres undefined), the AC50 under setting [1] was 10 µM [falling, partial curve].
The same measure, in the same setting: under `CCOC(=O)C1CCN(C(=O)Nc2ccc3nc(-c4ccco4)c(-c4ccco4)nc3c2)CC1` stands 16.4 µM [falling, partial curve].
Turning to `O=C(/C=N/NC(=O)c1ccccc1Br)c1ccccc1`, the AC50 was 12.6 µM [falling, partial curve] under setting [1] and 35.5 µM [falling, single point] under setting [2].
Take `O=C(COC(=O)c1ccc(Br)o1)Nc1ncc([N+](=O)[O-])s1`: the AC50 under setting [1] was 2.59 µM [rising, partial curve, poor fit].
The same measure, in the same setting: under `CCCCC(=O)Nc1ccc(NC(=O)c2ccccc2[N+](=O)[O-])cc1OC` stands 0.651 µM [rising, full curve, poor fit]; under `COc1ccc(C2C(C(=O)Nc3ccccc3OC)=C(C)Nc3ncnn32)cc1` (centres undefined), 32.6 µM [falling, single point].
For `O=C(Nc1nc2ccccc2s1)C1c2ccccc2Oc2ccccc21`, the concentration at half-maximal activity (AC50) under setting [1] is 20.6 µM [falling, single point] and the AC50 under setting [2] is 16.4 µM [rising, single point].
As for `O=C(NCc1ccc(F)cc1)C1CCCN(S(=O)(=O)c2ccc(Br)s2)C1` (centres undefined), the AC50 under setting [1] was 10 µM [falling, partial curve, poor fit].
`COc1cc(Cl)c(C)cc1NC(=O)Cc1ccc(OC)c(OC)c1`: the AC50 under setting [1] is 35.5 µM [falling, single point].
Still for that read-out and setting: under `O=C(CN(c1cccc(C(F)(F)F)c1)S(=O)(=O)c1ccc(Cl)c([N+](=O)[O-])c1)NCc1ccccc1` stands 29.1 µM [falling, single point]; under `Nc1c(C(=O)N2CCCCC2)sc(=S)n1-c1ccccc1`, 20.6 µM [falling, partial curve, poor fit].
Take `CCN(CC)c1ccc(-c2nn3c(-c4n[nH]c5c4CCC5)nnc3s2)cc1`: the AC50 under setting [1] was 7.94 µM [rising, partial curve] and the AC50 under setting [2] was 8.91 µM [falling, partial curve].
Turning to `COc1ccc(C(=O)CSc2nccn2C)cc1`, the AC50 under setting [1] was 35.5 µM [falling, single point].
Consider `C=CCOc1ccc(C(=O)c2ccccc2)c(OCC(=O)NC2(C#N)CCCC2)c1`, for which the AC50 under setting [1] was 8.91 µM [falling, partial curve, poor fit].
Same read-out and setting: under `CC(Sc1ccc2ccccc2n1)C(=O)O` (centres undefined) stands 0.447 µM [falling, partial curve, poor fit].
On the same count and under the same terms, the same measure for `Cc1cc(C(=O)COc2cc(F)ccc2[N+](=O)[O-])c(C)n1CC1CCCO1` (centres undefined): 23.1 µM [falling, single point]; for `CCC1(c2ccccc2)NC(=S)N(c2ccc(C)cc2)N1` (centres undefined): 1.58 µM [rising, full curve].
Regarding `CCC(Sc1nc(C)cc(C)n1)C(=O)Nc1cc(C)on1` (centres undefined), the AC50 under setting [1] is 3.16 µM [falling, single point].
On the same count and under the same terms, under `CCOCCCNC(=O)/C(C#N)=C/c1ccc([N+](=O)[O-])o1` stands 25.1 µM [falling, single point]; under `O=[N+]([O-])c1ccc(O)c(N=Cc2sc3ccccc3c2O)c1`, 8.2 µM [falling, partial curve].
The same measure, in the same setting: under `Nc1nc(SCC(=O)c2ccc(Oc3ccccc3)cc2)n[nH]1` stands 6.51 µM [rising, single point]; under `O=C(c1ccc(-c2ccccc2)cc1)N1CCN(Cc2ccccn2)CC1`, 35.5 µM [falling, single point].
Same read-out and setting: the same measure for `Cc1ccc(N(CC(=O)NCc2ccco2)C(=O)CCC(=O)Nc2ccccn2)cc1C`: 35.5 µM [falling, single point].
On to `O=C(NCC1CCCO1)c1cc2c(=O)[nH]c3ccccc3c2s1` (centres undefined), for which, under setting [1], the concentration at half-maximal activity (AC50) was 8.91 µM [falling, partial curve, poor fit].
The same measure, in the same setting: under `COc1ccc(-c2cn3ccccc3n2)cc1` stands 12.6 µM [falling, single point]; under `O=C(NCc1ccccc1Cl)C(=O)c1cn(CC(=O)N2CCOCC2)c2ccccc12`, 1.41 µM [falling, full curve]; under `CCOC(=O)C(CC)/C(C)=N\NC(=O)c1cccc(C)c1` (centres undefined), 2 µM [falling, partial curve].
Same read-out and setting: under `COc1cc(Cl)ccc1OCc1cc(C(=O)N(C)Cc2nnc(C)o2)no1` stands 3.55 µM [falling, full curve]; under `CC1CC(C)(C)NC(=S)O1` (centres undefined), 12.6 µM [rising, single point].
Take `Cc1cccc(Nc2nc(N)c([N+](=O)[O-])c(NCc3ccco3)n2)c1`: the AC50 under setting [1] is 5.17 µM [falling, single point].
The same measure, in the same setting: the same measure for `CCc1cccc(C)c1NC(=S)NCc1ccccc1`: 2.31 µM [rising, partial curve, poor fit].
Same read-out and setting: under `Cc1ccc(N/N=C2\CS(=O)(=O)N(C)c3ccsc32)cc1` stands 3.55 µM [rising, partial curve, poor fit].
The same measure, in the same setting: the same measure for `COc1cc(C#Cc2c(-c3cncn3C)n(C)c3ccc(-c4ccc5[nH]ccc5c4)cc23)cc(OC)c1`: 20.6 µM [rising, single point].
With `Nc1c(-c2ccccc2)sc2ccc3ccccc3[n+]12`, the AC50 under setting [1] was 11.2 µM [rising, partial curve].
For the compound `O=C(OCC(=O)N1CCCCCC1)c1ccc[nH]c1=O`, under setting [1], the AC50 was 29.1 µM [rising, single point].

The values above are taken from PubChem BioAssay AID493014 (National Center for Advancing Translational Sciences (NCATS), 2011).
